Measurements reported in PubChem BioAssay AID652243 (Drosophila RNAi Screening Center, 2013).

- Aim: 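Knock-downs that decrease or increase androgen receptor reporter signal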 (primary screen)
- Cell system: Drosophila S2R+ cells
- Reagents: long dsRNA against Drosophila genes
- Duration: 72 h (48 h, then 24 h hormone)
- Challenge: synthetic androgen R1881 at 10 nM for 24 h
- Detection: 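Firefly light from an androgen-responsive reporter and Renilla control light per well, raw and unnormalised, for each of two replicates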
- Direction: firefly reporter light: higher = more light from androgen-responsive reporter; Renilla control light: higher = more constitutive control signal (cell number, transfection)
- Hit rule: 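Hit when the log firefly-to-Renilla ratio dropped or increased by a fixed fold versus the mean of GFP or LacZ controls across duplicate plates; lowering cut given as 1.5 and as 3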
- Meaning of the calls: active = hit: reporter lowered or raised; inactive = no hit
The screen tested about 24,000 reagents; shown is a random part of those with a known target gene and a result. Over the whole deposit, 246 (1%) were called active. 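Plates not normalised; calls are printed but the firefly/Renilla ratio behind them is not deposited; fold cut for lowering reported inconsistently.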 Raw values vary from plate to plate and are shown uncorrected. A plus sign joins genes that one reagent is predicted to hit. No sequences are given here. The record does not give: the amount of reagent.

| firefly reporter light, replicate 1 | firefly reporter light, replicate 2 | Renilla control light, replicate 1 | Renilla control light, replicate 2 | Call | gene | amplicon |
| --- | --- | --- | --- | --- | --- | --- |
| 6.92e5 | 8.07e5 | 1.62e6 | 1.77e6 | inactive | CG41257 (retired record) | DRSC38682 |
| 1.27e6 | 6.21e5 | 2.15e6 | 1.22e6 | inactive | Pef (Peflin) | DRSC06695 |
| 8.01e5 | 1.07e6 | 1.88e6 | 2.22e6 | inactive | CG7222 | DRSC07019 |
| 1.33e5 | 1.18e5 | 1.22e6 | 1.11e6 | inactive | WRNexo (WRN exonuclease) | DRSC16278 |
| 1.08e5 | 1.67e5 | 4.49e5 | 3.62e5 | inactive | CG33465 | DRSC05587 |
| 5.03e5 | 3.25e5 | 2.90e6 | 2.34e6 | inactive | l(2)03659 (lethal (2) 03659) | DRSC07269 |
| 3.15e5 | 2.23e5 | 1.95e6 | 1.71e6 | inactive | l(2)03659 (lethal (2) 03659) | DRSC07638 |
| 5.54e5 | 3.86e5 | 2.02e6 | 2.23e6 | inactive | CG42319 | DRSC06645 |
| 2.40e5 | 1.97e5 | 1.37e6 | 1.39e6 | inactive | CG42319 | DRSC06646 |
| 4.84e5 | 1.04e6 | 7.20e5 | 1.42e6 | inactive | CG42319 | DRSC22426 |
| 2.91e5 | 3.31e5 | 8.00e5 | 8.39e5 | inactive | CG42319 | DRSC26059 |
| 94106 | 1.03e5 | 1.14e6 | 9.80e5 | inactive | RabX5 | DRSC08608 |
| 1.08e6 | 8.34e5 | 1.55e6 | 1.43e6 | inactive | RabX5 | DRSC28950 |
| 43221 | 64506 | 4.14e5 | 6.75e5 | inactive | CG9672 | DRSC20201 |
| 3.33e5 | 2.97e5 | 2.72e6 | 3.09e6 | inactive | CG33286 | DRSC11691 |
| 2.13e5 | 2.11e5 | 5.18e5 | 4.50e5 | inactive | CG33286 | DRSC26119 |
| 5.44e5 | 8.02e5 | 1.80e6 | 2.36e6 | inactive | Nsun2 (NOP2-Sun domain family, member 2) | DRSC18662 |
| 5.15e5 | 5.40e5 | 1.53e6 | 1.54e6 | inactive | Nsun2 (NOP2-Sun domain family, member 2) | DRSC28657 |
| 8.39e5 | 6.97e5 | 1.13e6 | 1.14e6 | inactive | CG3356 | DRSC04358 |
| 3.97e5 | 2.75e5 | 9.96e5 | 7.94e5 | inactive | CG3356 | DRSC28869 |
| 2.38e5 | 3.01e5 | 1.77e6 | 1.53e6 | inactive | rho-6 (rhomboid-6) | DRSC02588 |
| 6.20e5 | 6.76e5 | 1.46e6 | 1.14e6 | inactive | rho-6 (rhomboid-6) | DRSC29070 |
| 2.54e5 | 1.65e5 | 1.87e6 | 1.59e6 | inactive | Adck5 (aarF domain containing kinase 5) | DRSC10890 |
| – | – | – | – | inactive | Adck5 (aarF domain containing kinase 5) | DRSC36894 |
| – | – | – | – | inactive | Adck5 (aarF domain containing kinase 5) | DRSC36895 |
| 6.92e5 | 6.00e5 | 2.54e6 | 2.25e6 | inactive | CG30184 | DRSC22277 |
| 5.05e5 | 6.66e5 | 9.97e5 | 9.97e5 | inactive | CG30184 | DRSC29631 |
| 55359 | 57127 | 3.62e5 | 4.92e5 | inactive | CG7029 | DRSC16177 |
| 9.53e5 | 9.83e5 | 8.48e5 | 9.17e5 | inactive | CG7029 | DRSC23898 |
| 2.08e5 | 1.85e5 | 2.92e6 | 2.69e6 | inactive | CG5516 | DRSC15826 |
| 6.40e5 | 5.39e5 | 4.43e5 | 6.28e5 | inactive | CG5516 | DRSC21753 |
| 6.78e5 | 5.63e5 | 1.87e6 | 1.36e6 | inactive | CG5516 | DRSC27984 |
| 2.87e5 | 2.54e5 | 3.52e6 | 2.84e6 | inactive | Cpr67Fa1 (Cuticular protein 67Fa1) | DRSC10932 |
| 57264 | 55916 | 6.87e5 | 7.11e5 | inactive | RpL8 (Ribosomal protein L8) | DRSC08532 |
| 1.36e5 | 84366 | 7.09e5 | 8.51e5 | inactive | RpL8 (Ribosomal protein L8) | DRSC08695 |
| 3.69e5 | 3.51e5 | 6.51e5 | 7.89e5 | inactive | RpL8 (Ribosomal protein L8) | DRSC29905 |
| 55830 | 1.16e5 | 4.89e5 | 5.44e5 | inactive | CG11168 | DRSC14292 |
| 6.79e5 | 7.57e5 | 1.26e6 | 1.29e6 | inactive | CG3906 | DRSC04431 |
| 5.35e5 | 5.90e5 | 9.14e5 | 7.67e5 | inactive | CG3906 | DRSC27931 |
| 65378 | 82009 | 1.15e6 | 1.15e6 | inactive | CG14478 | DRSC06450 |
| 7.54e5 | 9.43e5 | 8.33e5 | 9.66e5 | inactive | amx (almondex) | DRSC23466 |
| 89912 | 2.14e5 | 9.71e5 | 1.62e6 | inactive | Spn27A (Serpin 27A) | DRSC03608 |
| 3.41e5 | 3.52e5 | 6.90e6 | 4.79e6 | inactive | Syt7 (Synaptotagmin 7) | DRSC17130 |
| 3.10e5 | 4.18e5 | 5.83e6 | 3.12e6 | inactive | Syt7 (Synaptotagmin 7) | DRSC17159 |
| 2.35e5 | 1.98e5 | 3.47e6 | 2.36e6 | inactive | Lcp65Ad | DRSC11211 |
| 5.39e5 | 3.63e5 | 3.61e5 | 2.32e5 | inactive | Lcp65Ad | DRSC24630 |
| 1.33e5 | 1.12e5 | 1.57e6 | 1.60e6 | inactive | CG14829 | DRSC10199 |
| 1.08e6 | 9.86e5 | 1.35e6 | 1.37e6 | inactive | CG7271 | DRSC22561 |
| 4.43e5 | 4.55e5 | 3.36e6 | 3.88e6 | inactive | CG13862 | DRSC14712 |
| 1.64e5 | 1.23e5 | 1.97e6 | 1.61e6 | inactive | CG32137 | DRSC10271 |
| 1.39e5 | 1.28e5 | 2.34e5 | 2.92e5 | inactive | Obp50c + Obp50b | DRSC05482 |
| 8.90e5 | 7.94e5 | 1.05e6 | 1.25e6 | inactive | Pgi (Phosphoglucose isomerase) | DRSC07507 |
| 1.22e5 | 1.45e5 | 1.53e6 | 1.55e6 | inactive | IleRS-m (Isoleucyl-tRNA synthetase, mitochondrial) | DRSC10506 |
| 1.37e5 | 1.04e5 | 3.44e5 | 2.38e5 | inactive | CG14223 | DRSC19580 |
| 5.98e5 | 7.05e5 | 8.56e5 | 9.18e5 | inactive | CG14223 | DRSC24816 |
| 1.35e6 | 4.78e5 | 1.81e6 | 6.08e5 | inactive | Su(var)2-HP2 | DRSC06204 |
| 4.25e5 | 5.79e5 | 5.59e5 | 5.59e5 | inactive | Su(var)2-HP2 | DRSC29542 |
| 4.37e5 | 4.30e5 | 1.23e6 | 1.02e6 | inactive | Toll-7 | DRSC07563 |
| 3.81e5 | 5.56e5 | 1.02e6 | 1.02e6 | inactive | Toll-7 | DRSC29640 |

Laid out differently: 6 of the entries above.
firefly reporter light, replicate 1 | firefly reporter light, replicate 2 | Renilla control light, replicate 1 | Renilla control light, replicate 2 | Call | gene | amplicon
7.54e5 | 9.43e5 | 8.33e5 | 9.66e5 | inactive | amx (almondex) | DRSC23466
89912 | 2.14e5 | 9.71e5 | 1.62e6 | inactive | Spn27A (Serpin 27A) | DRSC03608
3.41e5 | 3.52e5 | 6.90e6 | 4.79e6 | inactive | Syt7 (Synaptotagmin 7) | DRSC17130
3.10e5 | 4.18e5 | 5.83e6 | 3.12e6 | inactive | Syt7 (Synaptotagmin 7) | DRSC17159
2.35e5 | 1.98e5 | 3.47e6 | 2.36e6 | inactive | Lcp65Ad | DRSC11211
5.39e5 | 3.63e5 | 3.61e5 | 2.32e5 | inactive | Lcp65Ad | DRSC24630
